Assay results published in publication PMC8354638.
No constants are given. Whether binding was seen depends on the method and setting. In cells and extracts the contact can be indirect. A yes stands for co-enrichment or nearness to the bait. Other partners may have been found. Where a sequence is shown, tags or fusion partners need not be part of it.

By UniProt entry, the sequences of proteins in these tests, tags left out.
UniProt Q5VT06: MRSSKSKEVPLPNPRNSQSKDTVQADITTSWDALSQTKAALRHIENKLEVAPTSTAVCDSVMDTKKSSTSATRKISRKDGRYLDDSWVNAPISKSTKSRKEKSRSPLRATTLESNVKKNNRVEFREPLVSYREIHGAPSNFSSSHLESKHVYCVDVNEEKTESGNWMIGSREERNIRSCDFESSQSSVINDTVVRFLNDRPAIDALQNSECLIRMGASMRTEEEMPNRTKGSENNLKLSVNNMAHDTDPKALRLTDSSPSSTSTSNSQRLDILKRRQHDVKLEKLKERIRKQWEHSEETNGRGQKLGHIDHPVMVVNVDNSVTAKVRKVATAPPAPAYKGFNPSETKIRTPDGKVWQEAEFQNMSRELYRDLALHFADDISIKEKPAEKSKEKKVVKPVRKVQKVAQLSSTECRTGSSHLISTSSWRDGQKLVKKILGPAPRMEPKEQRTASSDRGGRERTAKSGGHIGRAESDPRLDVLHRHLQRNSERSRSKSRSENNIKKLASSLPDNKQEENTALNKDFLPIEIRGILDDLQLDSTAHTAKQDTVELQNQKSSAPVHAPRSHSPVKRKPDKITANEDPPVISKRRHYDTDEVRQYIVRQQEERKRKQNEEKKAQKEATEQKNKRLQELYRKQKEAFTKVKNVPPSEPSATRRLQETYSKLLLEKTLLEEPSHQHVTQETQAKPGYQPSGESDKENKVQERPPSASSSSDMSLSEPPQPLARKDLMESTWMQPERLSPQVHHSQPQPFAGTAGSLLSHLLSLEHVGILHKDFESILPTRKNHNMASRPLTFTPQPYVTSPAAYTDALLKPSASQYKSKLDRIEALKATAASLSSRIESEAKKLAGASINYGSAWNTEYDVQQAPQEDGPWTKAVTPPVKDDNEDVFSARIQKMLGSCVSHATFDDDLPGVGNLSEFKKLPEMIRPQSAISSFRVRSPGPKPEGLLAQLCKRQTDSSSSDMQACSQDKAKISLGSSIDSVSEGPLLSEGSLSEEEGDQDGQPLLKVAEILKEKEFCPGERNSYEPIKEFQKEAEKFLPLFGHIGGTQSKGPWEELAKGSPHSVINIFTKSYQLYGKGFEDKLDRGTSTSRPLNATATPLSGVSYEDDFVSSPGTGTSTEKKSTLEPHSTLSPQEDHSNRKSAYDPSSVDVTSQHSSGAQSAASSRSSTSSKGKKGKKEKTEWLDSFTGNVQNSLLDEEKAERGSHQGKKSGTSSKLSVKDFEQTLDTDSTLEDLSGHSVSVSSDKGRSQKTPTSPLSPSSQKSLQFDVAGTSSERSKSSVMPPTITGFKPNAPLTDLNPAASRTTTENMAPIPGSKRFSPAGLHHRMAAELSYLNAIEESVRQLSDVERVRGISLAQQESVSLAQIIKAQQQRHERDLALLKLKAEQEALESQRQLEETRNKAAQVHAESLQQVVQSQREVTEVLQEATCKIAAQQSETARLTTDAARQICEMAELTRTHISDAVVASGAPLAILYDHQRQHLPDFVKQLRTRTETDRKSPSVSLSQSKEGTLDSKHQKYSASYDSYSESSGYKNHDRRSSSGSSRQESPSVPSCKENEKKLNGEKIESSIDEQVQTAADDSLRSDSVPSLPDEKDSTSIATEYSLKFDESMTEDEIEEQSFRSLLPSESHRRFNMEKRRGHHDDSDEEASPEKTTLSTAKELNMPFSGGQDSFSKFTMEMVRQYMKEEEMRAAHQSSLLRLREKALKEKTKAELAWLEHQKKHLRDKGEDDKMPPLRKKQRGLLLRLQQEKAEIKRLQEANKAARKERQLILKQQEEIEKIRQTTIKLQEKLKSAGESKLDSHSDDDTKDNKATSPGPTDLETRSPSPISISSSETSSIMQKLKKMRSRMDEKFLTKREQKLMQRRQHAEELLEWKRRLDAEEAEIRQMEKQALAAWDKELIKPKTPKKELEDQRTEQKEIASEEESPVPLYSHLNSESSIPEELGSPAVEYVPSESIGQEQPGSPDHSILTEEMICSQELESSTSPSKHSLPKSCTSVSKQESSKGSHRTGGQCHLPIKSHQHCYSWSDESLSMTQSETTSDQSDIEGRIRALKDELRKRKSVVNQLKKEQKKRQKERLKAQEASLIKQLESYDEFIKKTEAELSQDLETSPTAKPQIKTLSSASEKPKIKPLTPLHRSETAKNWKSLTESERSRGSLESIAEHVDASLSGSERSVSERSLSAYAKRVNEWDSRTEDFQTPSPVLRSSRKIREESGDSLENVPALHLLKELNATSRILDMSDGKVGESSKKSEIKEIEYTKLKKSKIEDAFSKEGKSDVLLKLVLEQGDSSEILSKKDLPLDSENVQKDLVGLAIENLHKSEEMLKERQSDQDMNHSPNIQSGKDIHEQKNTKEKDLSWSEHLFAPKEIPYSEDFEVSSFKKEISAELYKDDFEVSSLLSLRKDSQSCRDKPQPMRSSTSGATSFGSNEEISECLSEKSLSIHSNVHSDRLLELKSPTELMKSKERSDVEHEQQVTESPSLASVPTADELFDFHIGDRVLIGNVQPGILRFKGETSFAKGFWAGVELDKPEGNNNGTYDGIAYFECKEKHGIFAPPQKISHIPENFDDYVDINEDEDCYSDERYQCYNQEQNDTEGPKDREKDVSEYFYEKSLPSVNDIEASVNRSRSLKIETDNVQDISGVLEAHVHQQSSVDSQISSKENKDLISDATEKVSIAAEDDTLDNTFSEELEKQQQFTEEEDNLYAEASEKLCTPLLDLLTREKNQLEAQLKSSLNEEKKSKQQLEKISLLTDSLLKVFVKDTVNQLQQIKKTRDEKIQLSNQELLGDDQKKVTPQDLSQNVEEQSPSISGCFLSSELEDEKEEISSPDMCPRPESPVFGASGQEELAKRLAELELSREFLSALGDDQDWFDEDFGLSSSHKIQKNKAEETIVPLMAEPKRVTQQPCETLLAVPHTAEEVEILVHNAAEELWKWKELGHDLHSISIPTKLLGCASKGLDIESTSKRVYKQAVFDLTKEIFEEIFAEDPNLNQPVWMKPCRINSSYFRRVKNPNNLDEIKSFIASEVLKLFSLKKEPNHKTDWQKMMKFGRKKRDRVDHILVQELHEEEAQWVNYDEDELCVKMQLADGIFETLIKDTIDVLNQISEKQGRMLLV

Target: T1, FLAG-CEP78 (human) (UniProt Q5JTW2)
T1 sequence: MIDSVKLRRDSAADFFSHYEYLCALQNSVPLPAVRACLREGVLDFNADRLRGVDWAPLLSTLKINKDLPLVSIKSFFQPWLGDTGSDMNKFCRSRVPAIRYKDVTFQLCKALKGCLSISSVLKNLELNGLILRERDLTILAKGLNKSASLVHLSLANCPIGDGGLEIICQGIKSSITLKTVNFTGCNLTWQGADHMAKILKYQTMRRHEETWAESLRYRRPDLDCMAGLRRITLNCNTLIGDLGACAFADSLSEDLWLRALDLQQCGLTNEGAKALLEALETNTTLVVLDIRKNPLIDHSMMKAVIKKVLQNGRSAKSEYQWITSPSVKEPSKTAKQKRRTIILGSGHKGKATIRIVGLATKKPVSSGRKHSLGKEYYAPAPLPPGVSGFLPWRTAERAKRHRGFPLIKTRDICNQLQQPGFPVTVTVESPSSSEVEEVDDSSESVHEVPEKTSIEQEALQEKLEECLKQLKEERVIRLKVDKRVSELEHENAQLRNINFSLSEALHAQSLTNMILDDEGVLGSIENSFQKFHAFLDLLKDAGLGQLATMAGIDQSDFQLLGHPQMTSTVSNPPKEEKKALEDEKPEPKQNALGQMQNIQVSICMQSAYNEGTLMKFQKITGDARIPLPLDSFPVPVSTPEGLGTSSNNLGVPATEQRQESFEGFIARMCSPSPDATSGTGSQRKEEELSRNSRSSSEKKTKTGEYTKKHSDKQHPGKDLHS
Assay: affinity purification with mass spectrometry; SILAC-labelled 293T cells transfected with FLAG-CEP78, FLAG-CEP78^L150S or FLAG-Ap80 (control); lysis in modified EBC buffer, FLAG IP, LC-MS of the pellets

- binding: binds
Substance: CEP350 (from UniProt Q5VT06 1-3117)
